Experimental data from PMC5833739.

T1: endogenous RFXANK (HEK293T) (human (endogenous in HEK293T)) (UniProt O14593)
T1 sequence: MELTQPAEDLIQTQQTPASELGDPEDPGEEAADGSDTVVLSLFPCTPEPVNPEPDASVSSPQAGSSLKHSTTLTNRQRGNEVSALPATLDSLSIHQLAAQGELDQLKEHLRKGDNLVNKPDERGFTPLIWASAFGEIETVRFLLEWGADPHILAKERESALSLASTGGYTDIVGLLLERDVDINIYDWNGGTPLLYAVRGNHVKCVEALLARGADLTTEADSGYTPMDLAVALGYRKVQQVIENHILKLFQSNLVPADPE

T2: RFXANK-myc-FLAG (human) (UniProt O14593)
T2 sequence: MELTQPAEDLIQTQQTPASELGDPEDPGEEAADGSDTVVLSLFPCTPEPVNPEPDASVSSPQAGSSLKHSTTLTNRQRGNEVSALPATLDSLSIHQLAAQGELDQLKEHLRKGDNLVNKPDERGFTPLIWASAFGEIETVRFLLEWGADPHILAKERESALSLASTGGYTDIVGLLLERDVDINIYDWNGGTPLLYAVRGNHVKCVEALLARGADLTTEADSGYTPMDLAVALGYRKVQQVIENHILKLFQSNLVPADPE


Key:
[1] = molecular target: T1, endogenous RFXANK (HEK293T) (human (endogenous in HEK293T)); assay: co-IP; HEK293T lysates after transfection; capture on anti-RFXANK-coated Dynabeads Protein G overnight at 4 °C; lysis buffer 30 mM Tris-HCl pH 7.5, 120 mM NaCl, 1% glycerol, 0.5% NP-40; Western blot
[2] = molecular target: T2, RFXANK-myc-FLAG (human); assay: as above
[3] = molecular target: Caspase-2^C303A-mCherry (catalytically inactive caspase-2 fused to mCherry) (human); assay: co-IP; HEK293T lysates after transfection; capture on anti-RFP-coated Dynabeads Protein G overnight at 4 °C; lysis buffer 30 mM Tris-HCl pH 7.5, 120 mM NaCl, 1% glycerol, 0.5% NP-40; Western blot

Row | binding [1] | binding [2] | binding [3] | Molecule
1 | binds | binds | – | Caspase-2^C303A-mCherry (catalytically inactive caspase-2 fused to mCherry) (human) (enzyme)
2 | – | – | binds | ANK1-4-GFP (truncated RFXANK containing ankyrin repeats 1-4) (domain or fragment, UniProt O14593 88-219) TLDSLSIHQLAAQGELDQLKEHLRKGDNLVNKPDERGFTPLIWASAFGEIETVRFLLEWGADPHILAKERESALSLASTGGYTDIVGLLLERDVDINIYDWNGGTPLLYAVRGNHVKCVEALLARGADLTTE
3 | – | – | binds | RFXANK-myc-FLAG (protein, UniProt O14593-1 1-260) MELTQPAEDLIQTQQTPASELGDPEDPGEEAADGSDTVVLSLFPCTPEPVNPEPDASVSSPQAGSSLKHSTTLTNRQRGNEVSALPATLDSLSIHQLAAQGELDQLKEHLRKGDNLVNKPDERGFTPLIWASAFGEIETVRFLLEWGADPHILAKERESALSLASTGGYTDIVGLLLERDVDINIYDWNGGTPLLYAVRGNHVKCVEALLARGADLTTEADSGYTPMDLAVALGYRKVQQVIENHILKLFQSNLVPADPE

Results are given in words; binding and its absence hold for the method and conditions named. In cells and extracts the contact can be indirect. Binding can be weak; no strength is given. For some of these results: Sequences can lack the tags named with a protein.
